Results from the supplement of paper PMC3334620.
Whole data set: some 33,000 sequences, median “E-score (-0.5 to 0.5)” near -0.016, cut for the highest 2% near 0.3. Some of the results follow.

The sequences below were run against T1, Yer184c (UniProt P39961) (assay: PBM E-score (8-mer binding enrichment) (E-score (-0.5 to 0.5)); higher = stronger / more preferred TF binding). Conditions: protein concentration: 100 nM; construct: GST-full length.
T1 sequence: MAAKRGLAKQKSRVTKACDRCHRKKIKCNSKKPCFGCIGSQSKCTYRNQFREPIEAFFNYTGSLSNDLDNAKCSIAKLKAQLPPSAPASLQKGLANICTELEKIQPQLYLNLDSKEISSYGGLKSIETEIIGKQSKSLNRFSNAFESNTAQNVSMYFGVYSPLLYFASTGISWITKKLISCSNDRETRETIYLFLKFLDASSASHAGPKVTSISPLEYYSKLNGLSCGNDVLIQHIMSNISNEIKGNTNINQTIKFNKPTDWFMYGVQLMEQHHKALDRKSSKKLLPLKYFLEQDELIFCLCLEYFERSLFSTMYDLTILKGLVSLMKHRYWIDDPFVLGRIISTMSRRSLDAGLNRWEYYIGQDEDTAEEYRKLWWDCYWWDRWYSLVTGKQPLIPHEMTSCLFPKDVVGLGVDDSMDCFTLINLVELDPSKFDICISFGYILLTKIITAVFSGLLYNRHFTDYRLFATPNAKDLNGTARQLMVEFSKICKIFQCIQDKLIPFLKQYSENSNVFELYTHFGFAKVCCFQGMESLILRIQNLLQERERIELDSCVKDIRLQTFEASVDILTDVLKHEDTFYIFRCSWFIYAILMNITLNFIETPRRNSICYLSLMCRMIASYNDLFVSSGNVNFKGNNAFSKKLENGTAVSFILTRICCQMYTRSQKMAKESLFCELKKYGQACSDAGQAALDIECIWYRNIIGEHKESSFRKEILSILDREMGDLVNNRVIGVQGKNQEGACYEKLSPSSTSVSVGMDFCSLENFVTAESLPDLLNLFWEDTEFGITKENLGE
How it was run: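 Yeast transcription factors, full-length or as DNA-binding domains, were expressed with a GST tag using PURExpress in vitro transcription/translation. At about 100-200 nM they were applied to universal all-10-mer Agilent arrays, double-stranded by primer extension on fresh or once-stripped slides. Fluorescent anti-GST detected bound protein, and masliner normalised the scans. E-scores for ungapped eight-base words, pooled with reverse complements, came from the Universal PBM Analysis Suite.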

Point of comparison: CTGACGGA, “PBM E-score” value 0.0435. Against it:
- ACTGAGTA — lower, -0.212
- GATATATC — higher, 0.266
- CTGGAATA — lower, 0.017
- AAGACCAG — lower, -0.113
- AACTACGC — lower, 0.0355
- AAGACTAA — higher, 0.0733
- ATGTCACA — higher, 0.157
- TGATGGAA — higher, 0.0745
- AATGTGAG — lower, -0.0534
- GTTTAAAA — higher, 0.162
- AGAATGCG — higher, 0.141
- AGCAGCCG — higher, 0.197
- TCAGCCAA — lower, -0.089
- ATCTCGCA — higher, 0.128
- ATGTTGGC — lower, -0.0133
- AAGTGACC — lower, -0.0785
- CGAAGGCA — lower, -0.179
- CCTTTGAC — lower, -0.0704
- CGCGTCAC — lower, -0.11
- CTCTTGGC — lower, -0.189
- ATTTCAGG — higher, 0.121
- GCCATTGA — lower, 0.0105
- GAAGCTGC — lower, -0.197
- CCAACTTA — lower, -0.0404
- CTATCGTC — lower, -0.213
- CTGGCTTC — lower, -0.182
- ACGAAAAC — higher, 0.274
- AAGCGGCT — higher, 0.197
- AAAGTCGT — lower, -0.162
- ATCCCAAC — lower, -0.193
- CAAAACTG — higher, 0.0604
- TATGGGGA — lower, -0.00306
- AAGGACGT — lower, -0.0295
- ACATGCCG — higher, 0.214
- TAGCGCTA — higher, 0.0558
- ATCGGTAC — higher, 0.147
- ATCATAGA — higher, 0.0803
- CGACTGCC — lower, -0.139
- ATTAAACG — higher, 0.172
- ACAGCTCG — lower, 0.00408
- GACCTTCA — lower, -0.119
- CTAGTAAA — higher, 0.237
- ACAGGCGA — lower, -0.105
- GATGTATA — lower, -0.0153
- ACTACTCC — higher, 0.1
- TCCTGGAA — lower, -0.204
- CCCACACC — lower, -0.11
- GGTGTTCA — higher, 0.0476
- AGCAGCAT — lower, -0.206
- CGAGCTGA — higher, 0.114
- AGGTGACC — lower, -0.147
- ACACCAAG — lower, -0.0733
- AATCGAGC — lower, -0.0342
- CCGCGTAC — higher, 0.0694
- AACTTCTG — higher, 0.0903
- ACCGACGC — lower, 0.0188
- CCAAGGGA — lower, -0.237
- CACGGCGA — higher, 0.0466
- CCTTCACA — lower, -0.0444
- ACAGGACA — higher, 0.122
- CGCACTGA — lower, -0.0244
- ACCCGCCG — higher, 0.302
- GCTAAGGA — lower, -0.154
- AGTATCGA — higher, 0.156
- ACACCCAA — lower, 0.00915
- GGACACTA — higher, 0.0451
- AGGCATTG — lower, -0.157
- CGACAGCG — lower, -0.0214
- TACGAATA — higher, 0.118
- GTACCTAC — lower, -0.212
- ACCTGTTA — lower, -0.229
- CTCACCGA — higher, 0.168
- ACTTTTGC — lower, 0.0377
- CTAGCGTA — lower, -0.113
- AGACTAGC — lower, -0.293
- AAGTTGCT — lower, -0.0222
- CTACACAA — higher, 0.149
- GGCACCCA — lower, -0.108
- ATAGCCGG — higher, 0.388
- CCTCCATA — lower, -0.0805
- CGCTCCCA — lower, -0.144
- CCTAACTA — higher, 0.238
- CGAGTTAG — higher, 0.0651
- GACAGGGA — lower, -0.135
- AAAGCGTT — lower, -0.0919
